# Measurements reported in PMC7819943, “Rice protein-binding microarrays: a tool to detect cis-acting elements near promoter regions in rice”.
# The chains behind the UniProt entries cited, without tags or fusion partners.
# UniProt Q0JBA9, entry or part of it: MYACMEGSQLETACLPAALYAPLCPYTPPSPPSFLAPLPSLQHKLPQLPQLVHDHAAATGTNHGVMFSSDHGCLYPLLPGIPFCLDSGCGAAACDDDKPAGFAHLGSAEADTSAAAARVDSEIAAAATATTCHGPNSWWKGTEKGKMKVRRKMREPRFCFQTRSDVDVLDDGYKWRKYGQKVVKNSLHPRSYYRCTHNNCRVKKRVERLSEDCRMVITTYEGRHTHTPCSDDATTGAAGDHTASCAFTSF
# The other results are listed elsewhere or left out.
# Biological target: OsWRKY34 (Oryza sativa, UniProt Q0JBA9 1-250)
# Assay: protein-binding microarray (RPBM); PBS, 2% BSA, 51.3 ng/ul salmon testes DNA, 50 uM zinc acetate, 200 nM TF, 25 C, 1 h; high values mean tight binding
# Conditions: protein: recombinant; tags: N-terminal polyhistidine and DsRed monomer fusion (pET32a); label: CyDye5-dUTP incorporated in the synthesized complementary strand; 3' TTTTT single-stranded linker to array surface; dsDNA, one strand shown
# Summary of the method: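 In PBS with 2% BSA, salmon testes DNA and 50 µM zinc acetate, 200 nM protein was incubated on a custom Agilent array at 25 °C for 1 h and then washed off. The array had been made double-stranded by primer extension with Cy5-dUTP and blocked with 2% BSA. The proteins were transcription factors fused N-terminally to polyhistidine and DsRed, expressed in E. coli BL21-CodonPlus and purified on Ni–NTA. The binding signal is per-feature fluorescence intensity (arbitrary units) from an Axon 4000B scanner.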
row,Sequence,binding signal
1,TTTTCCAGGGGCGAGGGCGGGGCATGGAAGTAACCCGCGGCGGAGTCACCTAGTGCAG,8520 fluorescence intensity (a.u.)
2,CCTTTTCTTCGCTCTGCGGCTACCTATCTCTTGTATTTATCGGAGTCACCTAGTGCAG,10100 ± 161 fluorescence intensity (a.u.)
3,CAACTTTCGCCGCATGGCCGCCGGTCGCCGGGGCGGCGTCCGGAGTCACCTAGTGCAG,8230 fluorescence intensity (a.u.)
4,TTCCGGAGCGTCTTTTGATCGTGGTTGGGTTTGTCTGAACCGGAGTCACCTAGTGCAG,8360 fluorescence intensity (a.u.)
5,GTTGGATTTTATTTTTCTGGATTCGCATGGAACACTACAACGGAGTCACCTAGTGCAG,8660 fluorescence intensity (a.u.)
6,GGTTGTCACCTGTTCAGCTCGATGCACACTCTTGGCTGAGCGGAGTCACCTAGTGCAG,8760 fluorescence intensity (a.u.)
7,TTTTCCATTCCCATTAGCCAAACACTCCTTTATCTTTCATCGGAGTCACCTAGTGCAG,12400 fluorescence intensity (a.u.)
8,GCTCTTTCTGTTGTGTGTTGTGATCTTTGTGGTTGCTTCACGGAGTCACCTAGTGCAG,8360 fluorescence intensity (a.u.)
9,TAGTGCTACCCAACCTGATCTCGCCTCAACCCCTACATATCGGAGTCACCTAGTGCAG,8860 fluorescence intensity (a.u.)
10,GGGATGCTCGTAGCCAGCGGTGCTCAGGGAGGTGGAGGGGCGGAGTCACCTAGTGCAG,12800 fluorescence intensity (a.u.)
11,AACCGTTTCCACCCTGTAAACATTAGGTATGTTGCCCTCACGGAGTCACCTAGTGCAG,8140 fluorescence intensity (a.u.)
12,GCCCTTAACGCGATCATGTAACAATGTATCTAAGCCTATACGGAGTCACCTAGTGCAG,8200 fluorescence intensity (a.u.)
13,ACTGACCCACCGCCCCAAGCAGGCGCTCCTAGATCTTCCACGGAGTCACCTAGTGCAG,8680 fluorescence intensity (a.u.)
14,CAGGCATATTCGGATCTTTTCTCGCGTTGACCCTGATTATCGGAGTCACCTAGTGCAG,13400 fluorescence intensity (a.u.)
15,TTTTCCGTCATATCGTTCTAATTTCTTCAAATTTTCATTTCGGAGTCACCTAGTGCAG,8600 fluorescence intensity (a.u.)
16,CCCGCCACCGCGCAGCCGCCCGACGCCGTCGCCGCTCGTCCGGAGTCACCTAGTGCAG,8430 fluorescence intensity (a.u.)
17,AGGGGAGGGGCAGGGAGTTTAATTGGGACTTGGAAGGAGGCGGAGTCACCTAGTGCAG,10300 fluorescence intensity (a.u.)
18,TCGCGTCCTCCACACCAACTTTATTGCGCCCTCCACACCACGGAGTCACCTAGTGCAG,9170 fluorescence intensity (a.u.)
19,TTAATACTTTATGCGTGACTTATCTTTTTAATTTTTTTCACGGAGTCACCTAGTGCAG,9760 fluorescence intensity (a.u.)
20,CTCCCCGCCACACCGACACCCTGCGCAGTTGCGCCGCCGCCGGAGTCACCTAGTGCAG,8590 fluorescence intensity (a.u.)
21,CTCTACTTCCAATCTCATCTCTTTTCTTTTTTTTTCTCTTCGGAGTCACCTAGTGCAG,8560 fluorescence intensity (a.u.)

row,Sequence,binding signal
1,GCCTGTGGTTTTTTTCCGCAAGGGTTTTTCACGTTAAATTCGGAGTCACCTAGTGCAG,8620 fluorescence intensity (a.u.)
2,ACGACCCAACCAATCGACTCGCACCACCACCAGCAGCTCACGGAGTCACCTAGTGCAG,8600 fluorescence intensity (a.u.)
3,AATGTTGTCCTGTCGGCTGCTTCTGCTCCAACGTCAAGTTCGGAGTCACCTAGTGCAG,8140 fluorescence intensity (a.u.)
4,GTCCTTCCGTTATCTGCAAATACATCCTATCTTAAGCTTTCGGAGTCACCTAGTGCAG,8400 fluorescence intensity (a.u.)
5,CACGCACATTTCTTTACTCGCCCGGAGAAGCTACCGCGCGCGGAGTCACCTAGTGCAG,10300 fluorescence intensity (a.u.)
6,CCAATTCACTCCACCATACTGTTGGCACCTATGATAGAACCGGAGTCACCTAGTGCAG,8180 fluorescence intensity (a.u.)
7,AGCCCTCAGAACCTTCTCTTTCTTGTTCTTCTCTTCTTCCCGGAGTCACCTAGTGCAG,8720 fluorescence intensity (a.u.)
8,ATAGAGTTAGTCAAACTTAAAGTAGTTTGACTTGACTAAACGGAGTCACCTAGTGCAG,9560 fluorescence intensity (a.u.)
9,GGTTTTTTTCGTCCACATTTAATGCTGCATACATATGTCTCGGAGTCACCTAGTGCAG,8760 fluorescence intensity (a.u.)
10,CCCTTTGTCCTGCAGTACGTTTTTCCTTGCATTTTTCTTTCGGAGTCACCTAGTGCAG,19700 fluorescence intensity (a.u.)
11,ATCACGAGGCTCCAAGCAAGCGCTCTCAGTCTCTTATAACCGGAGTCACCTAGTGCAG,8230 fluorescence intensity (a.u.)
12,GCGCTTAACTTTGATCGTCCGTTTTATTTGAAAAATTTTTCGGAGTCACCTAGTGCAG,9160 fluorescence intensity (a.u.)
13,AAATGTTGGTGGGGAAGTTGTTATATTTTGGATAAATCCTCGGAGTCACCTAGTGCAG,12800 fluorescence intensity (a.u.)
14,ATCCTATATTTGTTGCAGTTCATTCATTTCATCACCAGTTCGGAGTCACCTAGTGCAG,8840 fluorescence intensity (a.u.)
15,GAACTTAATCCATTTTTTTTTTATCTCTGACAGCATCCGACGGAGTCACCTAGTGCAG,9160 fluorescence intensity (a.u.)
16,AATGCTTTCTTTCACTTCTTCCATTCCTCTGTCCACAAAACGGAGTCACCTAGTGCAG,8670 fluorescence intensity (a.u.)
17,GGTCTCCGTCCAAGCAGTGATATTTTTGGGTTGGGTTTGGCGGAGTCACCTAGTGCAG,8340 fluorescence intensity (a.u.)
18,TCCCTTGATGCGAACAAAATGCTGTCTGTACATTTTTTCGCGGAGTCACCTAGTGCAG,12000 fluorescence intensity (a.u.)
19,AATAACTTTCCAGGCAAATATATGCATGATGTTTTTGTTTCGGAGTCACCTAGTGCAG,8040 fluorescence intensity (a.u.)
20,CGTTGTATTCGTTCCAGTCCCAAAACCAGCGAGATGGATGCGGAGTCACCTAGTGCAG,8570 fluorescence intensity (a.u.)
21,ATTTTATATTTTATTACTGCTCCACTCCACTCCGCATTTCCGGAGTCACCTAGTGCAG,10000 fluorescence intensity (a.u.)

# Some values from above:
# binding signal with CGTTGTATTCGTTCCAGTCCCAAAACCAGCGAGATGGATGCGGAGTCACCTAGTGCAG is entered as 8570 fluorescence intensity (a.u.)
# binding signal with ATAGAGTTAGTCAAACTTAAAGTAGTTTGACTTGACTAAACGGAGTCACCTAGTGCAG is entered as 9560 fluorescence intensity (a.u.)
# binding signal with CAGGCATATTCGGATCTTTTCTCGCGTTGACCCTGATTATCGGAGTCACCTAGTGCAG is entered as 13400 fluorescence intensity (a.u.)
# binding signal with CTCCCCGCCACACCGACACCCTGCGCAGTTGCGCCGCCGCCGGAGTCACCTAGTGCAG is entered as 8590 fluorescence intensity (a.u.)
# binding signal with ACTGACCCACCGCCCCAAGCAGGCGCTCCTAGATCTTCCACGGAGTCACCTAGTGCAG is entered as 8680 fluorescence intensity (a.u.)

# Continuation:

row,Sequence,binding signal
1,AATCCTGCACTATTCATTTTTCCCATATACCTTCACTTCTCGGAGTCACCTAGTGCAG,12000 fluorescence intensity (a.u.)
2,AGGCGGGATGGTCGCGGTTGGGGTTTCCTTCGTTTCGTTGCGGAGTCACCTAGTGCAG,13900 fluorescence intensity (a.u.)
3,GAATCATCAAACCACACCAATCGCCTCCAACATCATCACACGGAGTCACCTAGTGCAG,8430 fluorescence intensity (a.u.)
4,GGTTGTACTATGCCAATTTGAACCAGCTGTCGATTTATGTCGGAGTCACCTAGTGCAG,9220 fluorescence intensity (a.u.)
5,TTGCTCTATCAGGATATTACGGTTGTCAATTACAAAGGGGCGGAGTCACCTAGTGCAG,8790 fluorescence intensity (a.u.)
6,CGCTGACCACGTTGACCATCTTCCATTTCTTCCCCTCGCCCGGAGTCACCTAGTGCAG,18600 fluorescence intensity (a.u.)
7,AAAATCCTTGTCTCCGTCTCTTTTATCTCAATCTCGCATACGGAGTCACCTAGTGCAG,11400 fluorescence intensity (a.u.)
8,TATATTTTATTTTAGTCATGGTCGTATCTAATTTGTCTTCCGGAGTCACCTAGTGCAG,12100 fluorescence intensity (a.u.)
9,TCTGACACTGGGCCCCACCTGCCAGTGTCTGCGGCTTCCACGGAGTCACCTAGTGCAG,8050 fluorescence intensity (a.u.)
10,GGTGAAAGGGGTCTTTAGTTTATATGGGATAAAATGACGACGGAGTCACCTAGTGCAG,8300 fluorescence intensity (a.u.)
11,TTCGTTTTGACTTTTTTCTTAGTAAAACTTTTATGTTTGACGGAGTCACCTAGTGCAG,11600 fluorescence intensity (a.u.)
12,CTGCTTCGCCTCTCGTTCCCCAAGGCCCCGAAGCCGCCGGCGGAGTCACCTAGTGCAG,8350 fluorescence intensity (a.u.)
13,CGGAACTAACTTTTTCACTATGGCATTTTTTTTTTCTTGTCGGAGTCACCTAGTGCAG,8700 fluorescence intensity (a.u.)
14,GCGGGAGGGTAACAAGGCGGCGGCGGGTGCGCGCTCGCCTCGGAGTCACCTAGTGCAG,9310 fluorescence intensity (a.u.)
15,ATCAATTCTATTCTCTCTGTGACCCAGGTAATTGCTGCTGCGGAGTCACCTAGTGCAG,10500 fluorescence intensity (a.u.)
16,CAAAACCACGGAGATAACCAGATAATCCTCGCACATCTCGCGGAGTCACCTAGTGCAG,8030 fluorescence intensity (a.u.)
17,TGCAGTAGTTGATGTGTGGTGTGTGTCAGATAAATCTGATCGGAGTCACCTAGTGCAG,9260 fluorescence intensity (a.u.)
18,CTCTTTATATTATTGTGCGAATTCAGTTCACCTTTACTACCGGAGTCACCTAGTGCAG,8170 fluorescence intensity (a.u.)
19,GCGGTTTCCTAGTTGACTGACCAAACAATTCATATATATTCGGAGTCACCTAGTGCAG,8740 fluorescence intensity (a.u.)
20,AGGAATTGGTGGATGCGGTGAGGGGCTACGGGGTGGAAGACGGAGTCACCTAGTGCAG,11100 fluorescence intensity (a.u.)
21,GCCGACAAGAACCGCCCCTACATTGACTCGGCTTTGCCCTCGGAGTCACCTAGTGCAG,8250 fluorescence intensity (a.u.)

row,Sequence,binding signal
1,GGAGTGTTTCTGTTGTTGCATGTGATGAGTGCATTATCATCGGAGTCACCTAGTGCAG,11000 fluorescence intensity (a.u.)
2,CTTCACGCTCTCCACTCCGCTCGGTGCCCGATCTGGTTCGCGGAGTCACCTAGTGCAG,8780 fluorescence intensity (a.u.)
3,CGCTATAATATAAGTACTGTTGGATTTTTGTTTTTCTTTTCGGAGTCACCTAGTGCAG,8100 fluorescence intensity (a.u.)
4,GATATTTGTTTATATTAGAAGTTGAGATGGTTTTTGTGTTCGGAGTCACCTAGTGCAG,9180 fluorescence intensity (a.u.)
5,CTCATCTCACCCGTCACTACTGCACTGCGCACCATTGCCGCGGAGTCACCTAGTGCAG,8540 fluorescence intensity (a.u.)
6,AGTATCGGCCTCTTCTTCTTCTGCTTCATGGATTGATCCACGGAGTCACCTAGTGCAG,9390 fluorescence intensity (a.u.)
7,CTCGTTTGATCTCTCAGTTGGGAGCATTATTTCTGCGCATCGGAGTCACCTAGTGCAG,10800 fluorescence intensity (a.u.)
8,GTTTCCGATCGACCAGATCCGCCCATCACACAGCATCTGTCGGAGTCACCTAGTGCAG,8440 fluorescence intensity (a.u.)
9,CTGTCGTGTTTCCTCTGATTAGTTCATACAGCATCTGTTACGGAGTCACCTAGTGCAG,17600 fluorescence intensity (a.u.)
10,GATCCATTCGGCGCATTTCATTATATGATTATCCCACACTCGGAGTCACCTAGTGCAG,10300 fluorescence intensity (a.u.)
11,GAAAAGCACTCACTCAAGTCTCCATGGCATTTCCTACTTCCGGAGTCACCTAGTGCAG,11800 fluorescence intensity (a.u.)
12,GGCTTTGTATTTTGGTGTTGAGTCCCTTCCATACAAGAACCGGAGTCACCTAGTGCAG,8040 fluorescence intensity (a.u.)
13,CCTGTGTTTTGCAATTCTCTGTTTTACACTTACATTCCAACGGAGTCACCTAGTGCAG,8160 fluorescence intensity (a.u.)
14,ACTAGTACATTGTTAGTCATCCTGGGTTTTTCCTCCAAAACGGAGTCACCTAGTGCAG,8450 fluorescence intensity (a.u.)
15,TCCCTTTCTGTTCCGGCCGCCTCGATCGCCCGCTACCCGCCGGAGTCACCTAGTGCAG,10000 fluorescence intensity (a.u.)
16,CTTTCTTATTGTCGGCGTTGTCATCCATCCAAAACCTCTACGGAGTCACCTAGTGCAG,13000 fluorescence intensity (a.u.)
17,CTCAACGAGTTCTTCCGCCGCACCTCAACGCGTCACCCCTCGGAGTCACCTAGTGCAG,9170 fluorescence intensity (a.u.)
18,GAGTCAGACCCACTTGGGCGGGGCGGGGCGCGGCGCGGCGCGGAGTCACCTAGTGCAG,13600 fluorescence intensity (a.u.)
19,GCTTCATCGATTCTTGCGTGTCCTTTTGGATTAGTGTGCACGGAGTCACCTAGTGCAG,9350 fluorescence intensity (a.u.)
20,GCAAACTTGCAAACCGTTCTTTTTCAGATAACCTTTTTTTCGGAGTCACCTAGTGCAG,8700 fluorescence intensity (a.u.)
21,GCTTTCTGGCCTGCGGAACCACGCATTCGGCTACCAGCTCCGGAGTCACCTAGTGCAG,8120 fluorescence intensity (a.u.)
